In all, about 320,000 compounds went through this assay and about 22,000 (6.9%) were called active. This list was built around the results that the source calls inconclusive (neither active nor inactive); the mix of calls is not that of the screen. The call rests on the fitted dose curve; in most records, active means well fitted inhibition curve with a large enough effect; inconclusive means small, poorly fitted or top-dose-only effect, or another doubt; inactive means no such curve, though single readings can be large or run the other way. Potencies beside an inconclusive call are fits to weak or partial responses and may not hold up.
Assay: Primary qHTS for delayed death inhibitors of the malarial parasite plastid, 96 hour incubation
Settings: P. falciparum luciferase reporter growth; series mostly up to 28.7 µM
Method in brief: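 Two-generation exposure (96 h) targets delayed-death phenotype. Reporter parasites carrying integrated firefly luciferase, in red cells at 2% hematocrit and 0.05% parasitemia final, kept at 37 C, 5% CO2; luminescence loss indicates inhibition.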
Potency means the concentration at half of the fitted maximal effect.

| SMILES | Potency |
| --- | --- |
| Oc1ccccc1Nc1ncnc2c1oc1ccccc12 | inconclusive: 10.4 µM [inhibitor, single point] |
| CCOc1ccccc1C(=O)NCC(=O)NCc1ccc(S(=O)(=O)N2CCOCC2)cc1 | inconclusive: 16.5 µM [inhibitor, single point] |
| O=C(c1ccc(S(=O)(=O)N2CCCC2)cc1)N1CCN(c2ccccc2F)CC1 | active: 4.65 µM |
| Cc1ccc(COc2ccc(/C=N/NC(=O)CN3CCCCC3)cc2)cc1 | inconclusive: 13.1 µM [inhibitor, single point] |
| CCN(CC(=O)Nc1ccc(NC(C)=O)cc1)C(=O)CSC(=S)N1CCCC1 | inconclusive: 18.5 µM [inhibitor, single point] |
| O=C(CN1CCN(C(=O)C2CCN(C(=O)/C=C/c3ccccc3)CC2)CC1)Nc1ccccc1Cl | inconclusive: 3.7 µM [inhibitor, single point] |
| Cc1cc(C(=O)COc2nncc3ccccc23)c(C)n1C | inconclusive: 0.828 µM [inhibitor, full curve, poor fit] |
| COCC(=O)N1CCC(Oc2ccc(C(=O)N(C)C3CCCCC3)cc2)CC1 | inactive |
| Cc1cccc(NC(=S)N=Nc2c(O)n(C)c3ccc(S(=O)(=O)N4CCOCC4)cc23)c1 | active: 2.33 µM |
| Cc1ccc(S(=O)(=O)N/N=C2/CC(c3ccccc3)Oc3ccccc32)cc1[N+](=O)[O-] (stereo not given) | inactive |
| CCc1ccc(NC(=S)N(Cc2ccccc2)Cc2ccccn2)cc1 | inactive |
| CCOC(=O)C1(Cc2ccccc2C)CCCN(Cc2cn(C)nc2C)C1 (stereo not given) | inactive |
| COc1ccc(-n2nc(C(=O)Nc3nc4ccc(OC)cc4s3)c3ccccc3c2=O)c(OC)c1 | inactive |
| Cc1cc(F)ccc1NC(=O)c1cc(S(=O)(=O)N2CCCC2)cn1C | inconclusive: 18.5 µM [inhibitor, single point] |
| O=C(Nc1cc(Cl)ccc1O)c1cc2n(n1)C(C(F)(F)F)CC(c1ccc3c(c1)OCO3)N2 (stereo not given) | inconclusive: 18.5 µM [inhibitor, single point] |
| CC(C(=O)N1CCc2ccccc21)N(C)CC(=O)Nc1ccc(F)cc1 (stereo not given) | inconclusive: 18.5 µM [inhibitor, single point] |
| COc1ccc(NC(=O)C(c2ccc(OC)cc2)N(C)C(=O)CC2NC(=O)NC2=O)cc1 (stereo not given) | active: 11.7 µM |
| CN(Cc1ccccc1)C(=O)CSc1cc(=O)n(C)c2ccccc12 | inconclusive: 13.1 µM [inhibitor, single point] |
| CCN(Cc1ccccc1)C(=O)CN1C(=O)COc2ccc(S(=O)(=O)N3CCCCCC3)cc21 | inconclusive: 11.7 µM [inhibitor, single point] |
| COC(=O)c1nc(NC(C)=O)n[nH]1 | inconclusive: 0.0738 µM [inhibitor, full curve, poor fit] |
| Nc1ccccc1NC1CCCCC1 | inconclusive: 0.0828 µM [inhibitor, full curve, poor fit] |
| O=c1onc(-c2c(F)cccc2F)n1-c1ccccc1Cl | inactive |
| COc1ccc(/C(N)=N/OC(=O)c2cccc([N+](=O)[O-])c2C)cc1 | inactive |
| CNC(=O)Nc1ccccc1NC(=O)NC | inconclusive: 20.8 µM [inhibitor, single point] |

| SMILES | Potency |
| --- | --- |
| O=C(O)CSc1nnc(COc2cccc3ccccc23)o1 | inconclusive: 18.5 µM [inhibitor, single point] |
| COc1ccc(OCCSc2nnc(-c3ccoc3C)n2C)cc1 | inconclusive: 10.4 µM [inhibitor, single point] |
| O=C(Nc1ccc(NS(=O)(=O)c2ccccc2)cc1)c1cccnc1 | inconclusive: 0.586 µM [inhibitor, partial curve, poor fit] |
| OCCCNc1nnc(-c2ccccc2)c2ccccc12 | inconclusive: 18.5 µM [inhibitor, single point] |
| O=C(NC1CC1)c1ccc2c(c1)N(Cc1ccc(Cl)cc1)CCS2 | inconclusive: 2.33 µM [inhibitor, full curve] |
| COc1ccccc1C(=O)COC(=O)C1CCN(S(=O)(=O)c2ccc(C)c(C)c2)CC1 | inactive |
| COc1ccc(-c2noc(CCC(=O)NCCCN3CCN(c4ccc(F)cc4)CC3)n2)cc1 | inconclusive: 8.28 µM [inhibitor, partial curve, poor fit] |
| Cc1cccc(C(=O)NCCc2ccc(S(N)(=O)=O)cc2)c1[N+](=O)[O-] | inconclusive: 10.4 µM [inhibitor, single point] |
| COc1ccc(C(=O)NC(C)Cn2nc(C)cc2C)cc1OC1CCN(C(C)=O)CC1 (stereo not given) | inactive |
| Cc1ccccc1-n1c(SCC(=O)c2c(N)n(C)c(=O)n(C)c2=O)nc2sc3c(c2c1=O)CCCC3 | active: 0.928 µM |
| CCOC(=O)C1(Cc2cccc(OC)c2)CCCN(Cc2cc(OC)c(O)c(OC)c2)C1 (stereo not given) | inconclusive: 10.4 µM [inhibitor, single point] |
| CCCc1nc2ccccc2c(C(=O)N(CC)CC(=O)NCc2cccs2)c1CC | inconclusive: 10.4 µM [inhibitor, partial curve] |
| COc1cc2cc(CN(CCCO)S(=O)(=O)c3ccccc3Cl)c(=O)[nH]c2cc1OC | inconclusive: 10.4 µM [inhibitor, single point] |
| Nc1c(-c2ccc(Cl)cc2)cnc2c(-c3ccc(F)cc3)cnn12 | inactive |
| COCCCNC(=O)CCc1c(C)nc2c(-c3ccc(F)cc3)c(C)nn2c1C | inconclusive: 2.08 µM [inhibitor, partial curve, poor fit] |
| COc1ccc(C[C@@H]2CN3C(=NC[C@@H]3Cc3ccc(O)cc3)N2C[C@H](C)NC(=O)CCC2CCCCC2)cc1 | active: 0.738 µM |
| CCOC(=O)c1c(NC(=O)c2ccc(C)cc2)sc2c1CC(C)(C)NC2(C)C | inactive |
| COc1ccc(C(=O)Nc2ccc3ccccc3c2)cc1 | inactive |
| Cc1ccc(N2C(=O)c3ccc(N)cc3C2=O)cc1C | inactive |
| Cc1ccc(NC(=O)CN(C)C(=O)C(C)N2CCN(Cc3ccccc3C)CC2)cc1 (stereo not given) | inconclusive: 18.5 µM [inhibitor, single point] |
| CC(=O)Oc1ccc(C(=O)OCC(=O)c2c(N)n(C)c(=O)n(C)c2=O)cc1OC(C)=O | inactive |
| Cc1nn(C)c(=O)n1N(C)c1ncc(C(F)(F)F)cc1Cl | inactive |
| Cc1cc(C)c2cc(CN(Cc3ccco3)C(=O)NCc3ccccc3)c(=O)[nH]c2c1 | active: 14.7 µM |
| CC1CN(C(=S)c2cccc([N+](=O)[O-])c2)CC(C)O1 (stereo not given) | inactive |

| SMILES | Potency |
| --- | --- |
| CCOc1ccc(Oc2ccc(C(F)(F)F)cc2N)cc1 | inactive |
| CC(=O)Nc1ccc(Sc2ccccc2C(=O)O)cn1 | inconclusive: 13.1 µM [inhibitor, single point] |
| COc1ccc(Cc2c(C)nc(N)nc2Cl)cc1 | inconclusive: 3.7 µM [inhibitor, full curve, poor fit] |
| O=S(=O)(c1ccccc1)C1(C2CC(c3ccccc3)=NO2)CC(O)C1 (stereo not given) | inconclusive: 0.131 µM [inhibitor, full curve] |
| COC(=O)C1CCN(C(=O)CN(C)Cc2ccc(C(C)(C)C)cc2)CC1 | inconclusive: 13.1 µM [inhibitor, partial curve, poor fit] |
| Cc1cc(C[n+]2cc(Br)ccc2N)c2ncccc2c1 | active: 13.1 µM |
| CCOC(=O)Cn1c(=O)oc2cc(S(=O)(=O)Nc3ccc(N(CC)CC)cc3C)ccc21 | inconclusive: 18.5 µM [inhibitor, single point] |
| Cc1ccc(SCc2cn3c(C)cc(C)nc3n2)cc1 | inactive |
| CCCn1c(C)cc(C(=O)COC(=O)c2c(C)nn(-c3ccccc3)c2C)c1C | inconclusive: 14.7 µM [inhibitor, partial curve, poor fit] |
| COc1ccc(OC)c([C@@H](O)[C@H](C)NC(C)(C)C)c1 | inactive |
| O=C(N1CCC(n2nc(-c3ccccc3)oc2=O)CC1)C1(c2ccc(Cl)cc2)CC1 | inconclusive: 2.33 µM [inhibitor, full curve, poor fit] |
| Cc1nnc(SCc2nnc(-c3ccccc3Br)o2)n1-c1ccccc1 | inconclusive: 18.5 µM [inhibitor, single point] |
| CCn1c(=O)n(CC)c2cc(N3CCCC3)c(NC(=O)c3cccc(OC)c3)cc21 | active: 0.738 µM |
| CCCn1cc(S(=O)(=O)c2ccccc2)c(=O)c2cc(CC)ccc21 | inconclusive: 1.31 µM [inhibitor, full curve, poor fit] |
| CCCCc1nc2cc(C(=O)N3CCCC(COC)C3)ccc2o1 (stereo not given) | inconclusive: 9.28 µM [inhibitor, partial curve] |
| Cc1ccc(NC(=O)c2ccccc2N2C(=O)C3C4C=CC(C5CC45)C3C2=O)cc1C (stereo not given) | active: 9.28 µM |
| CCOC(=O)[C@H]1[C@H]2COc3ccc(Br)cc3[C@@H]2N2C(=O)c3ccc(F)cc3NC(=O)[C@@]12C | inconclusive: 16.5 µM [inhibitor, single point] |
| Cc1ccc(CNC(=O)CCn2cc(-c3ccc(F)cc3)nc2-c2ccncc2)cc1 | inconclusive: 18.5 µM [inhibitor, single point] |
| COc1ccc(S(=O)(=O)N2CCCC(C(=O)N3CCCC3)C2)cc1OC (stereo not given) | inconclusive: 18.5 µM [inhibitor, partial curve, poor fit] |
| CCN(CCCNC(=O)Cn1cc2c(n1)CCCC2)c1cccc(C)c1 | active: 13.1 µM |
| CCOc1ccc(CN2CCN(C3CCSCC3)CC2CCO)cc1 (stereo not given) | inconclusive: 18.5 µM [inhibitor, single point] |
| COc1cccc(-c2cc(C(=O)NCC3CCCO3)c3cc(C)cc(C)c3n2)c1 (stereo not given) | inconclusive: 18.5 µM [inhibitor, single point] |

Two entries from above, bar-delimited.
SMILES | Potency
COc1ccc(OC)c([C@@H](O)[C@H](C)NC(C)(C)C)c1 | inactive
O=C(N1CCC(n2nc(-c3ccccc3)oc2=O)CC1)C1(c2ccc(Cl)cc2)CC1 | inconclusive: 2.33 µM [inhibitor, full curve, poor fit]

Reference: PubChem BioAssay AID504834 (National Center for Advancing Translational Sciences (NCATS), 2011)
